Experimental data published in US20230095167A1 (UNIVERSITEIT MAASTRICHT, published 2023).
These are yes or no findings as the source states them, for the method shown. Some binding calls cover weakened binding; strength is not graded here.

T1: recombinant NT-proBMP10 (22-312) (human, UniProt O95393 22-312)
T1 construct: In-house construct; also called pro-peptide BMP10; BMP10(312)
T1 sequence: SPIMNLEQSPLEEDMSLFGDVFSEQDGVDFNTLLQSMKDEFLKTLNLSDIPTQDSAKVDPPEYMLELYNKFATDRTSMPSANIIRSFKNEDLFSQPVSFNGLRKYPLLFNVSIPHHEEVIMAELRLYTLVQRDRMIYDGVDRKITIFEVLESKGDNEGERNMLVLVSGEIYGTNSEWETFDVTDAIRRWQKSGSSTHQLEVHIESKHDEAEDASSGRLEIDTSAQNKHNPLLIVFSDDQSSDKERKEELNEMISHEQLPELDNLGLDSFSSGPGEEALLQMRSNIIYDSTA

B1: MAB<BMP10>rRb-14C8 HC2/LC3 (p10th/p10ti)-IgG(SPA) (antibody, V domains shown)
VH: QSVEESGGRLVTPGTPLTLTCTASGIDLSRYAMTWVRQAPGKGLEWIGIIGASSGTWYASWAKGRFTIAKTSTTVDLRITSPTTEDTATYFCARDNGDSKDYAFDPWGPGTLVTVSS
VL: IDMTQTPSPVSAAVGDTVTINCQASENIYSFLAWYQQKPGHSPNLLIYFASKLVSGVPSRFKGSGSGTQFTLTISDVQCDDAATYYCQQTYTYSNGDNPFGGGTEVVVK
notes: Recombinant rabbit monoclonal IgG; also called clone 14C8; VH-5/VL-5
B2: MAB<BMP10>rRb-8G5 HC3/LC5 (p10qz/p10ra)-IgG(SPA) (antibody, V domains shown)
VH: QSLEESGGDLVKPGASLTLTCTASGFSFSSSYWICWVRQAPGKGLEWIACIYAGSSDITYYASWAKGRFTVSKTSSPTVTLQMTSLTAADTATYFCARGRYYVDGYADYYPGDFNLWGPGTLVTVSS
VL: DIVMTQTPASVEAAVGGTVTIKCQASQSISSYLAWYQQKSGQPPKLLIYLASTLESGVPSRFKGSGSGTEFTLTISDLECADAATYYCQSYYYSSSSSYGSAFGGGTEVVVK
notes: Recombinant rabbit monoclonal IgG; also called clone 8G5; VH-8/VL-8
B3: MAB<BMP10>rRb-9E7 HC12/LC7 (p10rw/p10rx)-IgG(SPA) (antibody, V domains shown)
VH: QSLEESGGGLVQPEGSLTLTCIASAFSFSSGYYMCWVRQAPGKGLEWIACIYAGSSGTTYYASWAKGRFTISKASSTTVTLLMTSLTAADTATYFCARGPGASGYRLGLWGPGTLVTVSS
VL: DVVMTQTPASVSEPVGGTVTIKCQASEDIYRLLAWYQQKPGQPPKLLIYDASDLASGVPSRLSGSGSGTEYTLSISDLECADAATYYCQQGYYISGGDSFGGGTEVVVK
notes: Recombinant rabbit monoclonal IgG; also called clone 9E7
B4: 11C10 (antibody, V domains shown)
VH: QSLEESGGRLVTPGTALTVTCTVSGIDLSRNLMSWVRQAPGEGLEWIGSINFRNITWYASWAKGRFTISKTSTTVDLRISSPTTEDTATYFCARGVYVNSNGYYSLWGQGTPVTVSS
VL: DIVMTQTPASVEAAVGGTVTINCQASQSVSNLLAWYQQKPGQPPKLLIYGASKLESGVPSRFKGSGSGTQFTLTINDLECDDAATYYCQTYWGGDGTSYLNPFGGGTEVVVK
notes: Rabbit monoclonal IgG; also called clone 11C10; VH-3/VL-3
B5: MAB<BMP10>rRb-2H8 HC7/LC6 (p10qv/p10qw)-IgG(SPA) (antibody, V domains shown)
VH: QSVEESGGRLVTPGTPLTLTCTASAFSLSRYVMSWVRQAPGKGLEFIGFINASGSTSYASWAKGRFTISKTSTTVDLKMTSLTTEDTATYFCATGNLWGPGTLVTVSS
VL: DIVMTQTPSSVSGPVGGTVTINCQASQNIYSNLAWYQQKPGQPPKLLIYYASTLVSGVPSRFKGSGSGTQFTLTISDLECANAATYYCQSKDGPTSSTYGAFGGGTEVVVR
notes: Recombinant rabbit monoclonal IgG; also called clone 2H8; VH-6/VL-6
B6: MAB<BMP10>rRb-3H8 HC3/LC3 (p10qx/p10qy)-IgG(SPA) (antibody, V domains shown)
VH: QSVEESGGRLVTPGTPLTLTCTASGFSLSKYDMSWVRQAPGKGLEWIGAIGGRGVTDYTTWAKGRFTISKTATTVDLKMTSPTTEDTATYFCVRALAGDTLWGPGTLVTVSS
VL: AQVLTQTASPVSAAVGSTVTINCQASQNIYKYNNLAWYQQKPGQPPKRLIYEASKLASGVPSRFSGSGSGTQFTLTISGVQCEDAATYYCQGTFECSSADCFGFGGGTEVVVK
notes: Recombinant rabbit monoclonal IgG; also called clone 3H8; VH-7/VL-7

The binders below were run against T1, recombinant NT-proBMP10 (22-312) (assay: SPR Biacore 8K, 37°C).

Binder | binding
B1 | binds
B2 | binds
B3 | binds
B4 | binds
B5 | binds
B6 | binds

Each binder was assayed against T1, recombinant NT-proBMP10 (22-312) (assay: SPR kinetic characterisation, summary in the description).

Binder | binding
B1 | binds
B3 | binds
B4 | binds
B5 | binds
